The results in this text go back to the supplement of paper PMC12024529.

Each structure is given as a SMILES string. Where a name gives a salt, the structure may show the parent alone. Some of the results follow. Part of the spread comes from offsets between plates or batches.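 HEK293 lines stably express B-domain-deleted factor VIII fused to Gaussia luciferase, wild type or a misfolding-prone missense mutant. Scores equal triplicate-well mean luminescence minus DMSO mean, divided by DMSO standard deviation; scores of 2 or higher are hits. Low scores may indicate reduced secretion or worse cell viability.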

Test [1] concerns HEK293 WT BDD-FVIII-Gluc. The test can be described thus: secreted FVIII-Gluc luciferase Z-score vs DMSO control; higher = more FVIII-Gluc secretion. To be noted: 5 µM; 24 h.
Test [2] has as its system HEK293 p.N1941S BDD-FVIII-Gluc. Described as above. As to conditions: 5 µM; 24 h.

In the case of `CC(=O)OCC(=O)[C@@]12N=C(C)O[C@@H]1C[C@H]1[C@@H]3CCC4=CC(=O)C=C[C@]4(C)[C@H]3[C@@H](O)C[C@@]12C` [Deflazacort (Calcort)], the figures for the “secreted FVIII-Gluc luciferase Z-score” value in test [1] and in test [2] were active: 2.41 and active: 5.85, respectively.

As for `O=C1CC[C@@H](C(=O)N2CSC[C@H]2C(=O)O)N1` [Pidotimod], the “secreted FVIII-Gluc luciferase Z-score” value in test [1] is inactive: 1.29; in test [2], inactive: 0.173.

For `CC[C@H]1OC(=O)[C@H](C)[C@@H](O[C@H]2C[C@@](C)(OC)[C@@H](O)[C@H](C)O2)[C@H](C)[C@@H](O[C@@H]2O[C@H](C)C[C@H](N(C)C)[C@H]2O)[C@](C)(O)C[C@@H](C)[C@@H]2N[C@@H](COCCOC)O[C@H]([C@H]2C)[C@]1(C)O` [Dirithromycin], the “secreted FVIII-Gluc luciferase Z-score” value in test [1] is inactive: 0.746; in test [2], inactive: -0.453.

As to `C[C@]12C=CC(=O)C=C1CC[C@@H]1[C@@H]2C(=O)C[C@@]2(C)[C@H]1CC[C@]2(O)C(=O)CO` [Prednisone (Adasone)], the “secreted FVIII-Gluc luciferase Z-score” value in test [1] was inactive: -1.3; in test [2] it was inactive: 0.61.

As for `CC(=O)N[C@@H](CS)C(=O)O` [Acetylcysteine], the entries for the “secreted FVIII-Gluc luciferase Z-score” value in test [1] and in test [2] were inactive: -1.31 and inactive: 0.0724, respectively.

Regarding `O=C1CCc2cc(OCCCCc3nnnn3C3CCCCC3)ccc2N1` [Cilostazol], the entries for the “secreted FVIII-Gluc luciferase Z-score” value in test [1] and in test [2] were inactive: -3.41 and inactive: -0.691, respectively.

As to `Cc1ccc(C(=O)Nc2ccc(CN3CCN(C)CC3)c(C(F)(F)F)c2)cc1C#Cc1cnc2cccnn12`, the “secreted FVIII-Gluc luciferase Z-score” value in test [1] was inactive: -12.5; in test [2], inactive: -5.13.

`CCC(C)n1ncn(-c2ccc(N3CCN(c4ccc(OCC5COC(Cn6cncn6)(c6ccc(Cl)cc6Cl)O5)cc4)CC3)cc2)c1=O` (centres undefined) [Itraconazole (Sporanox)]: the “secreted FVIII-Gluc luciferase Z-score” value in test [1] was inactive: -3.71; in test [2] it was inactive: -6.31.

Regarding `COc1cc(NC(C)CCCN)c2ncccc2c1` (centres undefined) [Primaquine Diphosphate], the “secreted FVIII-Gluc luciferase Z-score” value in test [1] is inactive: -1.45; in test [2], inactive: -0.794.

With `CCOC(=O)c1ccc(C#Cc2ccc3c(c2)C(C)(C)CCS3)nc1` [Tazarotene (Avage)], the “secreted FVIII-Gluc luciferase Z-score” value in test [1] is inactive: -0.305; in test [2], inactive: -1.13.

For the molecule `CCOC(=O)N1CCC(=C2c3ccc(Cl)cc3CCc3cccnc32)CC1` [Loratadine], the “secreted FVIII-Gluc luciferase Z-score” value is inactive: -6.87 in test [1] and inactive: -2.2 in test [2].

Turning to `O=C(O)CCNC(=O)c1ccccc1` [Betamipron], the “secreted FVIII-Gluc luciferase Z-score” value in test [1] was inactive: 1.4; in test [2], inactive: 0.182.

Turning to `O=c1cc[nH]c(=O)[nH]1` [Uracil], the “secreted FVIII-Gluc luciferase Z-score” value in test [1] is inactive: 1.39; in test [2] it was inactive: 1.42.

Regarding `COCCCOc1cc(C[C@@H](C[C@H](N)[C@@H](O)C[C@H](C(=O)NCC(C)(C)C(N)=O)C(C)C)C(C)C)ccc1OC` [Aliskiren hemifumarate], the “secreted FVIII-Gluc luciferase Z-score” value in test [1] was inactive: -0.699; in test [2], inactive: 0.456.

As to `O=c1[nH]cc(F)c(=O)[nH]1` [Adrucil (Fluorouracil)], the “secreted FVIII-Gluc luciferase Z-score” value is inactive: -0.917 in test [1] and inactive: -1.96 in test [2].

For the molecule `CC(CCc1ccc(O)cc1)NCC(O)c1ccc(O)cc1` (centres undefined) [Ractopamine HCl], the “secreted FVIII-Gluc luciferase Z-score” value in test [1] was inactive: -1.94; in test [2], active: 2.02.

As for `CCCCOc1ccc(CC(=O)NO)cc1` [Bufexamac], the “secreted FVIII-Gluc luciferase Z-score” value in test [1] was inactive: -1.84; in test [2], inactive: 0.0149.

With `CCCN(CCc1cccs1)[C@H]1CCc2c(O)cccc2C1` [Rotigotine], the “secreted FVIII-Gluc luciferase Z-score” value in test [1] was inactive: -0.754; in test [2], inactive: 0.471.

On to `Cc1cn([C@@H]2C[C@@H](O)[C@H](CO)O2)c(=O)[nH]c1=O` [Telbivudine (Sebivo, Tyzeka)], for which the “secreted FVIII-Gluc luciferase Z-score” value in test [1] is inactive: -1.9; in test [2], inactive: -0.876.

In the case of `CC(C)(C)C(=O)C(Oc1ccc(Cl)cc1)n1ccnc1` (centres undefined) [Climbazole], the entries for the “secreted FVIII-Gluc luciferase Z-score” value in test [1] and in test [2] were inactive: -0.773 and inactive: 0.459, respectively.

Turning to `C#CCC(Cc1cnc2nc(N)nc(N)c2n1)c1ccc(C(=O)N[C@@H](CCC(=O)O)C(=O)O)cc1` (some centres undefined) [Pralatrexate (Folotyn)], the “secreted FVIII-Gluc luciferase Z-score” value in test [1] is inactive: -7.72; in test [2], inactive: -2.92.

In the case of `CN(C)CCCN1c2ccccc2CCc2ccc(Cl)cc21` [Clomipramine HCl], the “secreted FVIII-Gluc luciferase Z-score” value is inactive: -0.569 in test [1] and inactive: -3.24 in test [2].

As to `Cc1nc2n(c(=O)c1CCN1CCC(c3noc4cc(F)ccc34)CC1)CCCC2` [Risperidone (Risperdal)], the “secreted FVIII-Gluc luciferase Z-score” value in test [1] was inactive: -1.43; in test [2] it was inactive: 0.11.

For `CC(C)OC(=O)C(C)(C)Oc1ccc(C(=O)c2ccc(Cl)cc2)cc1` [Fenofibrate (Tricor, Trilipix)], the “secreted FVIII-Gluc luciferase Z-score” value is inactive: -3.25 in test [1] and inactive: -0.318 in test [2].

On to `CCN(CC)CCNC(=O)c1c(C)[nH]c(/C=C2\C(=O)Nc3ccc(F)cc32)c1C` [Sunitinib Malate (Sutent)], for which the “secreted FVIII-Gluc luciferase Z-score” value was inactive: -2.34 in test [1] and inactive: -7.9 in test [2].

As for `CC(C)[C@H]1CC[C@H](C(=O)N[C@H](Cc2ccccc2)C(=O)O)CC1` [Nateglinide (Starlix)], the “secreted FVIII-Gluc luciferase Z-score” value in test [1] is inactive: -0.21; in test [2], inactive: -0.383.

Take `O=C1O[C@H]([C@@H](O)CO)C([O-])=C1O.[Na+]` [Sodium ascorbate]: the results for the “secreted FVIII-Gluc luciferase Z-score” value in test [1] and in test [2] were inactive: -0.522 and inactive: 0.444, respectively.
